Assay results published in the supplement of paper PMC9938546.
Where a name gives a salt, the structure may show the parent alone. The list shows a part of the results. Plates or batches differ in their baseline, so values are only roughly comparable.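 HCT116-GFP, a KRAS-mutant, microsatellite-unstable human colorectal cancer line, constantly expresses green fluorescent protein; immune cells were from healthy donors. Cancer cell survival was tracked by live-cell imaging of green fluorescence, and activated immune cells by themselves reduced survival to roughly half.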

System: HCT116-GFP
Experiment: HCT116-GFP viability (GFP intensity) relative to untreated HCT116-GFP monoculture control, co-culture with activated PBMCs; higher = less cancer cell killing
Settings: culture: co-culture with anti-CD3/IL2 activated PBMCs 1:1; 10 µM; 72 h

| Structure (SMILES) | HCT116-GFP viability [%] |
| --- | --- |
| CN1CCCC(n2nc(Cc3ccc(Cl)cc3)c3ccccc3c2=O)CC1 (stereo unspecified) [Azelastine hydrochloride] | 66.2 |
| CCN1CCN(C(=O)N[C@@H](C(=O)N[C@@H]2C(=O)N3[C@@H]2SC(C)(C)[C@@H]3C(=O)O)c2ccccc2)C(=O)C1=O [Piperacillin sodium salt] | 72.9 |
| CO[C@@H]1[C@@H](OC(N)=O)[C@@H](O)[C@H](Oc2ccc3c(O)c(NC(=O)c4ccc(O)c(CC=C(C)C)c4)c(=O)oc3c2C)OC1(C)C [Novobiocin sodium salt] | 68.1 |
| N=C(N)NCC1COC2(CCCCC2)O1 (stereo unspecified) [Guanadrel sulfate] | 54.1 |
| CC1(C)OC(=O)NC1=O [Dimethadione] | 72.7 |
| Nc1ccc(C(=O)NCC(=O)O)cc1 [Aminohippuric acid] | 70.2 |
| COc1ccc(NS(=O)(=O)c2ccc(N)cc2)nn1 [Sulfamethoxypyridazine] | 87.2 |
| CCC[C@H](N[C@@H](C)C(=O)N1[C@H](C(=O)O)C[C@@H]2CCCC[C@@H]21)C(=O)OCC [Perindopril] | 25.4 |
| OCCN1CCN(CCCN2c3ccccc3Sc3ccc(Cl)cc32)CC1 [Perphenazine] | 29.5 |
| CN(C)CCc1c[nH]c2ccc(Cn3cncn3)cc12 [Rizatriptan benzoate] | 30.4 |
| Nc1ccc(S(=O)(=O)c2ccc(N)cc2)cc1 [Dapsone] | 56.8 |
| OC[C@H]1O[C@@H](Oc2ccc(O)cc2)[C@H](O)[C@@H](O)[C@@H]1O [Arbutin] | 35.7 |
| C=C1C[C@H]2[C@@H]3C=C(C)C4=CC(=O)CC[C@]4(C)[C@H]3CC[C@]2(C)[C@@]1(OC(C)=O)C(C)=O [Melengestrol acetate] | 104 |
| CC(=O)Oc1cccc2c1C(=O)c1c(OC(C)=O)cc(C(=O)O)cc1C2=O [Diacerein] | 84.2 |
| CN(C)CCc1c[nH]c2ccc(C[C@H]3COC(=O)N3)cc12 [Zolmitriptan] | 87 |
| CN(C)CCC=C1c2ccccc2C=Cc2ccccc21 [Cyclobenzaprine hydrochloride] | 69.9 |
| C[N+]1(C)CCC(=C(c2ccccc2)c2ccccc2)CC1 [Diphemanil methylsulfate] | 50.4 |
| NS(=O)(=O)c1cc2c(cc1Cl)NCNS2(=O)=O [Hydrochlorothiazide] | 34.3 |
| CNNCc1ccc(C(=O)NC(C)C)cc1 [Procarbazine hydrochloride] | 28.3 |
| O=c1[nH]c(=O)n([C@H]2C[C@H](O)[C@@H](CO)O2)cc1F [Floxuridine] | 3.39 |
| COc1cc(C)c(/C=C/C(C)=C/C=C/C(C)=C/C(=O)O)c(C)c1C [Acitretin] | 87.9 |

Three compounds out of the list, ordered by length of the SMILES, largest number first.

| Structure (SMILES) | HCT116-GFP viability [%] |
| --- | --- |
| CCN1CCN(C(=O)N[C@@H](C(=O)N[C@@H]2C(=O)N3[C@@H]2SC(C)(C)[C@@H]3C(=O)O)c2ccccc2)C(=O)C1=O [Piperacillin sodium salt] | 72.9 |
| CC(=O)Oc1cccc2c1C(=O)c1c(OC(C)=O)cc(C(=O)O)cc1C2=O [Diacerein] | 84.2 |
| O=c1[nH]c(=O)n([C@H]2C[C@H](O)[C@@H](CO)O2)cc1F [Floxuridine] | 3.39 |
